Measured values reported in PubChem BioAssay AID2685 (National Center for Advancing Translational Sciences (NCATS), 2010).
The list shows a part of the results. These are further read-outs of the screen, such as a control signal, another cell line or another target. No call is given for them. Most of these compounds were active or inconclusive in the main read-out, so they are no random draw. Words in brackets tell the shape of the fitted curve; partial curves, single points and poor fits give uncertain potencies.

Test: qHTS Assay for Lipid Storage Modulators in Drosophila S3 Cells;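 as to cell number change: cells counted by Cell Tracker Red CMTPX staining in the red channel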
Conditions: BODIPY lipid droplet fluorescence, 18-24 h; for cell number change: measured here: cell count max response, cells fed with added oleic acid
In short: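 Drosophila S3 cells got compounds at several concentrations plus oleic acid (400 uM solution). Laser-scanning cytometry with 488 nm excitation read lipid droplets at 500-530 nm and cells at 575-640 nm. Percent activity was relative to 20 uM Triacsin C.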

[1] = measured here: cell number channel AC50, cells fed with added oleic acid
[2] = measured here: lipid fluorescence (Fed channel) AC50, cells fed with added oleic acid

| Compound | cell number change | AC50 [1] | AC50 [2] |
| --- | --- | --- | --- |
| O=C(NC1CCCC1)c1ccc(CS(=O)(=O)c2ccc(Br)cc2)o1 | 66.7% | 4.61 µM [rising, partial curve] | 1.3 µM [rising, full curve] |
| CSc1nnc(C(C)(C)C)c(=O)n1/N=C/c1ccccc1 | 23.8% | – | 0.461 µM [rising, partial curve] |
| COc1ccc(N2CC(C(=O)OCC(=O)Nc3cccc(C)c3)CC2=O)cc1 (stereo not given) | -1.39% | – | 29.1 µM [falling, single point] |
| Cc1coc2c(C)c3oc(=O)c(CCC(=O)NCCCn4ccnc4)c(C)c3cc12 | – | 0.58 µM [rising, single point] | – |
| CCOC(=O)c1c(NC(=O)Cc2cccs2)sc(C)c1C | -13.5% | – | 0.164 µM [rising, full curve, poor fit] |
| CCNC(=O)CP(=O)(c1ccccc1)c1ccccc1 | -9.81% | – | 4.11 µM [falling, single point] |
| Cc1ccc(Nc2nc(C(=O)NCc3ccco3)cs2)cc1 | -32.9% | 5.8 µM [falling, full curve, poor fit] | 0.00461 µM [falling, full curve, poor fit] |
| Cc1[nH]c2ccccc2c1C(=O)COC(=O)C1CC(=O)N(Cc2ccco2)C1 (stereo not given) | – | 6.51 µM [rising, single point] | – |
| Cc1cccc(-c2noc(CCC(=O)NCc3ccccc3)n2)c1 | 16.8% | – | – |
| COCCNC(=S)N(Cc1cccnc1)Cc1ccc(OC)c(OC)c1 | 2.13% | – | 0.146 µM [rising, full curve, poor fit] |
| Cc1ccc(NC(=O)C2CCN(C(=O)NC3CCCCC3)CC2)cc1Cl | -16.8% | – | 29.1 µM [rising, single point] |
| Cn1cnnc1SCc1ccc(C#N)cc1Cl | -0.739% | – | 0.103 µM [falling, full curve, poor fit] |
| CCCCc1cc(=O)oc2cc(OC(C)C(=O)NCc3ccccn3)c(Cl)cc12 (stereo not given) | -21.7% | – | 0.731 µM [falling, full curve, poor fit] |
| COC(=O)CN1C(=O)C2(C(C#N)=C(N)Oc3ccccc32)C2=C1CC(C)(C)CC2=O (stereo not given) | -18% | 0.651 µM [falling, full curve] | 18.4 µM [falling, partial curve] |
| Cc1nc(C(C)NC(=O)c2cc(COc3ccc(C)c(C)c3)on2)c(C)s1 (stereo not given) | 7.63% | – | 20.6 µM [falling, single point] |
| CC(=O)N1CCN(S(=O)(=O)c2ccc3c(c2)CCC(=O)N3)CC1 | 12% | – | 0.206 µM [rising, full curve, poor fit] |
| CC(C)CN(CC(C)C)C(=O)CN1c2cccc3cccc(c23)S1(=O)=O | – | 6.51 µM [rising, single point] | – |
| CC(Oc1cccc(Cl)c1)C(=O)Nc1cc(S(=O)(=O)N2CCOCC2)ccc1N1CCCC1 (stereo not given) | 18.5% | – | – |
| Cc1c(C(=O)Nc2cccc([N+](=O)[O-])c2)csc1-c1ccccc1 | -6.61% | – | 18.4 µM [falling, single point] |
| O=C(NNC(=S)NC1CCCCC1)c1sc2ccccc2c1Cl | -23.2% | – | 29.1 µM [falling, single point] |

| Compound | cell number change | AC50 [1] | AC50 [2] |
| --- | --- | --- | --- |
| O=C(COc1ccc(S(=O)(=O)NC2CCCCC2)cc1Cl)NCC1CCCO1 (stereo not given) | 88.9% | – | 6.51 µM [rising, single point] |
| CN(C)S(=O)(=O)N1CCN(C(=O)N2CCOCC2)CC1 | – | – | 3.26 µM [falling, full curve] |
| O=C(Nc1ccccc1)Nc1sccc1-c1nc2ccccc2s1 | -3.23% | – | 6.51 µM [falling, single point] |
| CC(=O)NCCn1c(SCC(=O)NCCC2=CCCCC2)nc2ccccc2c1=O | -51.8% | – | – |
| Cc1nc(NCc2ccc(S(N)(=O)=O)cc2)c2c(C)c(C)sc2n1 | 19.6% | – | – |
| CC(=O)c1ccc(C(=O)N2CCCC(C(=O)c3cc(F)ccc3F)C2)s1 (stereo not given) | 0.837% | – | 1.46 µM [rising, full curve, poor fit] |
| N#C/C(=N\Nc1ccccc1[N+](=O)[O-])C(=N)N1CCCCC1 | 63.6% | 3.66 µM [rising, full curve] | 9.2 µM [rising, partial curve] |
| COC(=O)c1cc(NC(=O)c2nn(C)c(=O)c3ccccc23)cc(C(=O)OC)c1 | 15.1% | – | 29.1 µM [falling, single point] |
| COC(=O)C1=C(C)NC(=S)N(C(C)=O)C1c1ccc(OC)c(OC)c1 (stereo not given) | 0.308% | – | 4.61 µM [rising, partial curve] |
| O=C(Nc1ccc2c(c1)C(=O)OC2)c1ccc(Cl)cc1 | 1.8% | – | 29.1 µM [rising, single point] |
| Nc1cc(C(=O)N2CCCC2)cc(C(=O)N2CCCC2)c1 | 25.5% | – | 29.1 µM [rising, single point] |
| CCOC(=O)N1CCN(CCC(=O)Nc2cccc(Br)c2)CC1 | – | – | 0.651 µM [falling, partial curve, poor fit] |
| O=C1CC(NS(=O)(=O)c2cc(F)ccc2F)CN1c1cccc(F)c1 (stereo not given) | 19.2% | – | 29.1 µM [rising, single point] |
| CN=C1S/C(=C\c2ccc(Cl)cc2)C(=O)N1C | 12.6% | – | 1.84 µM [rising, full curve] |
| O=[N+]([O-])c1cc(S(=O)(=O)Nc2ccc(Cl)cc2)ccc1N/N=C/c1ccncc1 | 37.6% | 23.1 µM [rising, single point] | – |
| CS(=O)(=O)N(CC(=O)N/N=C/c1ccc(OCC(=O)N2CCOCC2)cc1)c1ccccc1Cl | -6.11% | – | 0.092 µM [falling, full curve, poor fit] |
| CC(C)[C@H](NC(=O)c1ccccc1)C(=O)OCC(=O)N1CCCc2ccccc21 | -5.1% | 0.259 µM [falling, single point] | – |
| Cc1[nH]n(-c2ccccc2)c(=O)c1/C=N/NC(=O)C(C)C | 23.9% | – | – |
| O=C(CCc1nc(-c2ccccc2F)no1)NCCN1CCc2ccccc2C1 | -58.4% | 29.1 µM [falling, single point] | 3.66 µM [falling, full curve, poor fit] |
| Cc1nn2c3c(cnc2c1-c1ccccc1)C(=O)CCC3 | 19.8% | 4.11 µM [rising, full curve, poor fit] | 20.6 µM [rising, single point] |

| Compound | cell number change | AC50 [1] | AC50 [2] |
| --- | --- | --- | --- |
| CCOc1ccc(-c2c(C(=O)N/N=C/c3cccnc3)nnn2-c2nonc2N)cc1 | 3.06% | – | 29.1 µM [rising, single point] |
| COC(=O)c1sccc1Oc1ccc(F)cc1[N+](=O)[O-] | 5.38% | – | 29.1 µM [rising, single point] |
| Cc1cc(C)nc(NC(=O)CSc2nc3ccccc3o2)n1 | 7.81% | 1.84 µM [rising, partial curve, poor fit] | – |
| Cc1c(C(=O)c2ccc(Cl)cc2[N+](=O)[O-])c2ccccn2c1CCC#N | -16% | – | 0.116 µM [rising, full curve, poor fit] |
| CN(C)C/C=C(\c1ccc(Br)cc1)c1cccnc1 | 25.8% | – | 29.1 µM [rising, single point] |
| Cc1ccc2c(c1)C(c1ccccc1)N(C(=O)c1cc3ccccc3oc1=O)CC(=O)N2 (stereo not given) | 4.39% | – | 5.17 µM [rising, single point] |
| Cc1nc2ccccc2n1C1CC(=O)N(Cc2ccccc2)C1=O (stereo not given) | -57.7% | 8.2 µM [falling, partial curve] | 5.8 µM [falling, partial curve] |
| CCn1ncc(/C=C/C(=O)Nc2c(C)nn(CC)c2C)c1C | -25.4% | – | 29.1 µM [falling, single point] |
| COc1cc(C(=O)OC(C)CN2CCCCC2)cc(OC)c1OC (stereo not given) | -11.9% | – | 0.651 µM [rising, full curve, poor fit] |
| C=C1CCC2[C@](C)(CO[C@@H]3O[C@H](CO)[C@@H](O)[C@H](O)[C@H]3O)CCC[C@@]2(C)[C@@H]1CCC1=CCOC1=O (stereo not given in full) | -39.9% | 0.13 µM [falling, full curve, poor fit] | 1.46 µM [falling, full curve] |
| CC(=O)/C(=N/Nc1ccccc1[N+](=O)[O-])N1CCCc2ccccc21 | -72.6% | 18.4 µM [falling, partial curve] | 14.6 µM [falling, partial curve] |
| COc1cc2c(cc1OC)C(NC(=O)C(F)(F)F)CNC2=O (stereo not given) | -3.06% | – | 8.2 µM [falling, partial curve] |
| COc1ccc(OC)c(NC(=O)CCCNC(=O)c2ccc(Cl)cc2)c1 | 25.5% | – | 6.51 µM [falling, partial curve, poor fit] |
| COc1ccccc1C(=O)Oc1cc(N)n(S(=O)(=O)c2ccccc2)n1 | 20% | 4.11 µM [falling, partial curve] | 3.66 µM [falling, partial curve] |
| Cc1oc(-c2ccccc2)cc1C(=O)Nc1cccc(C(=O)O)c1 | – | 5.17 µM [falling, single point] | – |
| COc1ccc(/C=C/C(=O)OCC(=O)Nc2ccc(S(N)(=O)=O)cc2)cc1OC | 10.1% | – | – |
| Cc1cc2ccccc2n2c(SCC(=O)NCc3cccs3)nnc12 | 22.3% | 0.291 µM [rising, full curve, poor fit] | 9.2 µM [rising, partial curve] |
| Cc1ccc2nc3c(cc(C(N)=S)c(=N)n3CCCOC(C)C)c(=O)n2c1 | 52.6% | 0.13 µM [rising, full curve, poor fit] | – |

An excerpt from above in order of molecular weight, rising:

| Compound | cell number change | AC50 [1] | AC50 [2] |
| --- | --- | --- | --- |
| CN(C)C/C=C(\c1ccc(Br)cc1)c1cccnc1 | 25.8% | – | 29.1 µM [rising, single point] |
| Cc1nc2ccccc2n1C1CC(=O)N(Cc2ccccc2)C1=O (stereo not given) | -57.7% | 8.2 µM [falling, partial curve] | 5.8 µM [falling, partial curve] |
| Cc1oc(-c2ccccc2)cc1C(=O)Nc1cccc(C(=O)O)c1 | – | 5.17 µM [falling, single point] | – |
| COc1ccccc1C(=O)Oc1cc(N)n(S(=O)(=O)c2ccccc2)n1 | 20% | 4.11 µM [falling, partial curve] | 3.66 µM [falling, partial curve] |
